The experiment in a line: qHTS Assay for Lipid Storage Modulators in Drosophila S3 Cells.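 As to cell number change: cells counted by Cell Tracker Red CMTPX staining in the red channel.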 As to conditions: BODIPY lipid droplet fluorescence, 18-24 h; for cell number change: measured here: cell count max response, cells fed with added oleic acid. Summed up: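 Drosophila S3 cells loaded with oleic acid (400 uM, as added) and compounds at several concentrations; lipid droplets imaged by 488-nm laser-scanning cytometry, 500–530 nm intensity and object ratio to cell channel. Percent activity normalized to 20 uM Triacsin C.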
(In qHTS, concentration-response curves come from the screen itself.)

The mark [1] stands for this setting: measured here: lipid fluorescence (Fed channel) AC50, cells fed with added oleic acid.
The mark [2] stands for this setting: measured here: cell number channel AC50, cells fed with added oleic acid.

Structures are written as SMILES. This is one part of the list. These are further read-outs of the screen, such as a control signal, another cell line or another target. No call is given for them. Compounds called inactive in the main read-out are mostly missing here. Words in brackets tell the shape of the fitted curve; partial curves, single points and poor fits give uncertain potencies.

What is called AC50 is the concentration giving half of the maximal activity seen. A low value points to greater potency. For the compound `Cc1nnc(N2C(=O)C(=O)/C(=C(/O)c3ccc4c(c3)OCCO4)C2c2ccc(F)cc2)s1` (configuration not stated), the cell number change is -2.14%. Moreover, the AC50 under setting [1] was 0.206 µM [rising, full curve].
As for `Cc1ccc(NC(=O)CN2CCN(C)CC2)cc1S(=O)(=O)N1CCOCC1`, the cell number change was 30.4%. Moreover, the AC50 under setting [2] is 23.1 µM [rising, single point]. Also, the AC50 under setting [1] was 6.51 µM [falling, single point].
Regarding `O=C(NC(=S)NC1CCS(=O)(=O)C1)c1cccc([N+](=O)[O-])c1` (configuration not stated), the cell number change is -12.4%. Further, the AC50 under setting [1] was 29.1 µM [falling, single point].
On to `O=C(Nc1ccc2c(c1)OCO2)C1CC(=O)N(c2ccc(F)cc2)C1` (configuration not stated), for which the cell number change was 22.2%. The AC50 under setting [1] was 3.66 µM [falling, partial curve, poor fit].
For `Cc1oc2cc([N+](=O)[O-])c(O)c([N+](=O)[O-])c2c1C(=O)c1ccc(Br)cc1`, the cell number change was -3.05%. For the same compound, under setting [2], the half-maximal activity concentration (AC50) was 6.51 µM [falling, single point]. The AC50 under setting [1] was 6.51 µM [falling, single point].
Consider `CC(C)c1nc(-c2c(N)n(C)c(=O)n(C)c2=O)sc1C(=O)C(C)(C)C`, for which the concentration at half-maximal activity (AC50) under setting [2] was 0.461 µM [rising, full curve].
In the case of `Nc1nc(NCc2ccco2)nc(Nc2ccccc2)c1[N+](=O)[O-]`, the cell number change was -51.8%. In addition, the AC50 under setting [1] was 0.146 µM [falling, full curve, poor fit].
With `O=C(COC(=O)Cc1cccc(C(F)(F)F)c1)NC1CCS(=O)(=O)C1` (configuration not stated), the cell number change is -27.9%. Besides, the half-maximal activity concentration (AC50) under setting [1] was 25.9 µM [falling, single point].
In the case of `COc1cc(OC)cc(-c2c(C#Cc3ccsc3)c3cc(-c4ccc5c(c4)OCCO5)ccc3n2C)c1`, the cell number change was -5.88%. Also, under setting [1], the AC50 was 0.58 µM [rising, partial curve].
Take `CCCCn1c(=O)[nH]c(=O)c2c1nc(-c1ccccc1OC(F)F)n2C`: the cell number change is -1.39%.
Consider `CCCCn1c(N)c(N(CCC(C)C)C(=O)c2ccc([N+](=O)[O-])o2)c(=O)[nH]c1=O`, for which the cell number change was 5.11%. Moreover, the AC50 under setting [1] was 20.6 µM [falling, single point].
On to `Cc1ccc(-c2cn(CCN)c(-c3ccncc3)n2)cc1`, for which the cell number change was 16.9%. Besides, under setting [2], the AC50 is 6.51 µM [falling, single point].
Turning to `Cc1nccn1CC(=O)N/N=C/c1cccc(O)c1`, the half-maximal activity concentration (AC50) under setting [2] is 0.00411 µM [falling, full curve, poor fit].
Turning to `O=C(NNc1ccc(Cl)cc1)C1CCC1`, the cell number change was -36.9%. Further, under setting [2], the AC50 was 0.461 µM [falling, full curve]. Further, the half-maximal activity concentration (AC50) under setting [1] was 0.411 µM [falling, full curve, poor fit].
For `O=C(OCC(=O)N1CCN(C(=O)c2ccco2)CC1)c1ccccc1OCc1ccc(Cl)cc1`, the cell number change was determined as 9.21%. Under setting [1], the AC50 is 29.1 µM [rising, single point].
As for `Cc1nc2ccccc2c(=O)n1CCc1ccc(O)cc1`, the cell number change was -17.6%.
In the case of `COC(=O)CC1C(=O)NCCN1C(=S)Nc1cccc(C)c1` (configuration not stated), the cell number change was -29.1%. Also, the AC50 under setting [2] was 0.651 µM [falling, full curve, poor fit]. Moreover, the AC50 under setting [1] is 6.51 µM [falling, single point].
Regarding `CC1=C(C#N)C(Nc2cccc(C)n2)(C(F)(F)F)C(=O)N1` (configuration not stated), the cell number change was 0.643%. For the same compound, under setting [1], the half-maximal activity concentration (AC50) is 1.46 µM [falling, partial curve].
For `O=C(Cc1cccc2ccccc12)Nc1ccc2oc(-c3ccccc3)nc2c1`, under setting [1], the AC50 is 2.31 µM [rising, partial curve].
With `COC(=O)/C=C1\C(=O)N(c2nc3ccc(OC)cc3s2)C(=S)N1c1ccc(F)cc1`, the cell number change was -83%. Further, under setting [2], the concentration at half-maximal activity (AC50) is 29.1 µM [falling, single point]. In addition, the AC50 under setting [1] was 29.1 µM [falling, partial curve, poor fit].
As for `O=C(O)c1cccc(N2C(=O)C3CC=C(Cl)CC3C2=O)c1` (configuration not stated), the cell number change is 11%. Also, the AC50 under setting [1] is 29.1 µM [rising, single point].
In the case of `CC(OC(=O)c1cccc(N2C(=O)c3ccccc3C2=O)c1)C(=O)Nc1ccc(N(C)C)cc1` (configuration not stated), the cell number change was -15.6%. Moreover, the AC50 under setting [2] was 0.116 µM [rising, full curve, poor fit]. Besides, the AC50 under setting [1] is 0.259 µM [rising, full curve, poor fit].
Turning to `CCCC(=O)N(Cc1cc2cc(C)ccc2[nH]c1=O)c1ccccc1OC`, the cell number change turned out to be 18.2%. Also, the AC50 under setting [1] was 18.4 µM [rising, single point].
For the compound `O=C(Nc1ccccc1)c1ccc(Br)c(S(=O)(=O)Nc2cccnc2)c1`, the cell number change is -13.1%. Also, the AC50 under setting [1] is 20.6 µM [rising, partial curve].
As to `NC(=O)Cn1nc([N+](=O)[O-])nc1Oc1ccccc1C(=O)N1CCOCC1`, the concentration at half-maximal activity (AC50) under setting [1] was 29.1 µM [falling, single point].
On to `CC1Cc2ccccc2N1C(=O)COC(=O)c1ccc(Br)o1` (configuration not stated), for which the cell number change came to 32.3%. Further, the AC50 under setting [2] is 29.1 µM [rising, single point].
For the compound `CCCCOC(=O)NC1CCS(=O)(=O)C1` (configuration not stated), the cell number change was determined as 12.2%.
The same measure, in the same setting: under `Cc1c(Cc2ccccc2)c(=O)oc2cc(OCC(=O)NCc3ccccn3)ccc12` stands -10.7%.
For `COc1ccccc1CCNC(=O)c1cccc(S(=O)(=O)NCc2ccccc2)c1`, the cell number change was 39.3%. In addition, the AC50 under setting [2] was 1.03 µM [rising, partial curve, poor fit]. Further, the AC50 under setting [1] was 3.66 µM [rising, partial curve, poor fit].
Take `COc1ccc(CN(CC(=O)NCCc2ccccc2)C(=O)CCC(=O)Nc2cc(C)ccn2)cc1`: the cell number change came out at 24.4%. Also, the half-maximal activity concentration (AC50) under setting [2] was 0.651 µM [rising, full curve, poor fit]. The concentration at half-maximal activity (AC50) under setting [1] was 29.1 µM [falling, single point].
In the case of `CC(Cc1ccccc1)NC(=O)CSc1nc2nc3c(cc2c(=O)n1-c1ccccc1)COC(C)(C)C3` (configuration not stated), the cell number change is -5.2%.
On the same count and under the same terms, next, `Cc1ccc(N2C(=O)C3C4C=CC(C4)C3C2=O)cc1C` (configuration not stated): -6.42%; `O=C(c1cnn2c(C(F)(F)F)cc(-c3cccs3)nc12)N1CCCC1`: 26.5%.
For `Cc1ccc(C(=O)CCNc2ccc(Cl)cc2)o1`, the AC50 under setting [2] was 0.82 µM [rising, single point] and the AC50 under setting [1] is 29.1 µM [rising, single point].
For the compound `CCC(CC)COC(=O)C1=C(C)NC(=O)NC1c1ccc([N+](=O)[O-])cc1` (configuration not stated), the cell number change was -26.4%. In addition, the AC50 under setting [1] was 29.1 µM [falling, single point].
`COc1cc(S(=O)(=O)N2CCCCCC2)ccc1-n1cnnn1`: under setting [1], the AC50 is 0.291 µM [falling, partial curve, poor fit].
On to `Cc1ccc(C(=O)c2ccccc2C(=O)OCC(=O)N2C(C)CCCC2C)cc1` (configuration not stated), for which the cell number change came to 15.8%. The concentration at half-maximal activity (AC50) under setting [1] was 2.59 µM [rising, full curve, poor fit].
For `COc1ccccc1C(=O)NCCC(=O)Nc1ccc(S(=O)(=O)N2CC(C)CC(C)C2)cc1` (configuration not stated), the cell number change stood at 3.01%.
Consider `O=C(COc1ccc(S(=O)(=O)NCc2ccccc2)cc1Cl)NCC1CCCO1` (configuration not stated), for which the cell number change worked out at 31%. Also, under setting [2], the AC50 was 20.6 µM [rising, single point].
With `COc1ccc(CC2S/C(=C(\C#N)C(=O)NCc3ccco3)N(c3ccc(C)cc3)C2=O)cc1` (configuration not stated), the cell number change was 2.84%. Besides, the AC50 under setting [1] was 29.1 µM [rising, single point].
On to `COCCOC1CCN(C(=O)c2ccc(OC)c(OC3CCN(C(C)C)CC3)c2)CC1`, for which the cell number change stood at 3.98%. In addition, under setting [1], the AC50 is 6.51 µM [falling, single point].
Turning to `COc1cc(C(=O)N2CCN(c3ccccc3Cl)CC2)ccc1OCC(=O)N1CCOCC1`, the cell number change stood at 1.9%. Moreover, under setting [1], the concentration at half-maximal activity (AC50) is 18.4 µM [falling, single point].
Turning to `Cc1cccc(NC(=O)C2C3CCCCC32)c1` (configuration not stated), the cell number change worked out at 0.246%.
Consider `Cc1ccc(-n2ncc3c2CCCC3NC(=O)c2ccccc2N2CCOCC2)cc1C` (configuration not stated), for which the cell number change was -42.2%. The half-maximal activity concentration (AC50) under setting [2] is 16.4 µM [falling, single point].
On to `COc1ccccc1C1(CC(=O)N2CCOCC2)CCOC(C(C)C)C1` (configuration not stated), for which the cell number change is 58.1%. The concentration at half-maximal activity (AC50) under setting [2] is 0.291 µM [rising, full curve].
With `CCSC1=C(C#N)C2(CCCCC2)C(C#N)=C(N)N1`, the cell number change was -57.9%. Moreover, under setting [2], the AC50 was 13 µM [falling, partial curve].
On to `COC(=O)c1cccc(NC(=O)CC2NCCNC2=O)c1` (configuration not stated), for which the cell number change is -3.12%. Moreover, the AC50 under setting [1] was 0.731 µM [falling, full curve, poor fit].
For `CCOC(=O)CNc1ncnc2nc[nH]c12`, the concentration at half-maximal activity (AC50) under setting [1] was 6.51 µM [falling, single point].
Consider `O=c1c2ccccc2nc2n1CCN2`, for which the cell number change is -11.7%. In addition, the half-maximal activity concentration (AC50) under setting [2] is 3.26 µM [falling, single point].
`COc1ccc(CCNC(=O)C(=O)NCC2OCCN2S(=O)(=O)c2ccc(F)cc2)cc1OC` (configuration not stated): the cell number change stood at 4.9%. Moreover, under setting [1], the half-maximal activity concentration (AC50) was 29.1 µM [falling, single point].
As to `Cc1ccc(S(=O)(=O)N2CCN(C(=O)Cc3ccc(S(=O)(=O)N4CCOCC4)s3)CC2)cc1`, the cell number change worked out at 9.91%. Besides, under setting [2], the half-maximal activity concentration (AC50) is 0.00461 µM [rising, full curve, poor fit].
On to `CC(=O)Nc1c(C#N)c(C(C)(C)C)cn1C`, for which the cell number change was -22%. The half-maximal activity concentration (AC50) under setting [1] is 0.731 µM [falling, full curve].
Consider `O=C(Cn1c(=O)cnc2ccccc21)NNC(=O)c1ccc(Cl)cc1`, for which the cell number change is 1.1%. For the same compound, the AC50 under setting [1] is 29.1 µM [rising, single point].
With `CCN(CC(=O)NCCCN1CCOCC1)S(=O)(=O)c1ccc(F)cc1`, the cell number change was -31.4%. Further, the concentration at half-maximal activity (AC50) under setting [2] is 0.116 µM [falling, full curve, poor fit].
For the compound `O=C(Nc1ccccc1)c1ccc(OC(=O)c2cc3ccccc3o2)cc1`, the cell number change was -38.6%. The AC50 under setting [1] is 29.1 µM [falling, single point].
In the case of `O=C(O)c1ccccc1C(=O)NC1CCCCNC1=O` (configuration not stated), the half-maximal activity concentration (AC50) under setting [2] is 0.116 µM [falling, full curve, poor fit] and the concentration at half-maximal activity (AC50) under setting [1] was 0.13 µM [falling, full curve, poor fit].
Regarding `O=S(=O)(c1ccc(F)cc1)c1nc(-c2ccccc2)oc1N1CCOCC1`, the cell number change was -36.6%. Further, the AC50 under setting [2] was 32.6 µM [falling, single point].
On to `COc1ccc(CCNC(=O)CN2CCN(c3cccc(C(F)(F)F)c3)CC2)cc1`, for which the cell number change turned out to be 61.7%. Besides, the half-maximal activity concentration (AC50) under setting [2] is 16.4 µM [rising, single point]. For the same compound, the AC50 under setting [1] is 0.82 µM [falling, full curve].
Regarding `Cc1ccc2oc(C(=O)Nc3cc(C)on3)c(C)c2c1`, the cell number change is -2.01%. Further, the AC50 under setting [1] is 0.517 µM [rising, full curve].

(Values after PubChem BioAssay AID2685 (National Center for Advancing Translational Sciences (NCATS), 2010).)
